This is one part of the list. Repeats are few or missing, and single values can be far off.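 Cells were imaged in 1,536-well plates, and nuclei stained with an antibody against cleaved PARP were counted against all DNA-stained nuclei to give the apoptosis fraction. Screening doses were chosen to leave most cells alive, and resting and induced cleaved-PARP levels differ strongly between cell lines.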
Columns and labels:
Experiment in all cases: cleaved PARP positive nuclei fraction relative to DMSO control; melanoma cells; higher = more apoptosis
Details in all cases: library dose: low library concentration; 72 h
WM115 = system: WM115
WM1716 = system: WM1716
WM1745 = system: WM1745
WM3526 = system: WM3526
WM3619 = system: WM3619
WM451Lu = system: WM451Lu

For `CN(c1ncccc1CNc1nc(Nc2ccc3c(c2)CC(=O)N3)ncc1C(F)(F)F)S(C)(=O)=O` + Cc1cc(SCc2sc(-c3ccc(C(F)(F)F)c(F)c3)nc2C)ccc1OCC(=O)O [GW0742] (first compound 0.08 µM, partner dose 2 µM), the “cleaved PARP positive nuclei fraction” value (WM115) was 189%, the “cleaved PARP positive nuclei fraction” value (WM1716) was 85.1% and the “cleaved PARP positive nuclei fraction” value (WM1745) was 100%. The “cleaved PARP positive nuclei fraction” value (WM3526) was 34.2%, the “cleaved PARP positive nuclei fraction” value (WM3619) was 94.3% and the “cleaved PARP positive nuclei fraction” value (WM451Lu) was 221%.

For `N.N.[Cl][Pt][Cl]` [cisplatin] + c1cc(-c2cnn3cc(-c4ccc(OCCN5CCCCC5)cc4)cnc23)ccn1 [Dorsomorphin] (first compound 1.6 µM, partner dose 0.4 µM), the “cleaved PARP positive nuclei fraction” value (WM115) was 149%, the “cleaved PARP positive nuclei fraction” value (WM1716) was 59.8% and the “cleaved PARP positive nuclei fraction” value (WM1745) was 388%. For the same compound, the “cleaved PARP positive nuclei fraction” value (WM3526) was 81.8%, the “cleaved PARP positive nuclei fraction” value (WM3619) was 92.5% and the “cleaved PARP positive nuclei fraction” value (WM451Lu) was 67.2%.

With `Cc1cc(Nc2cc(N3CCN(C)CC3)nc(Sc3ccc(NC(=O)C4CC4)cc3)n2)n[nH]1` [Tozasertib] + N.N.[Cl][Pt][Cl] [cisplatin] (first compound 0.006 µM, partner dose 1.6 µM) the “cleaved PARP positive nuclei fraction” value (WM115) was 97.9%, the “cleaved PARP positive nuclei fraction” value (WM1716) was 86.3% and the “cleaved PARP positive nuclei fraction” value (WM1745) was 188%. The “cleaved PARP positive nuclei fraction” value (WM3526) was 148%, the “cleaved PARP positive nuclei fraction” value (WM3619) was 90% and the “cleaved PARP positive nuclei fraction” value (WM451Lu) was 96.5%.

`NC(=O)c1ccc(N(C(N)=O)c2c(F)cccc2F)nc1-c1ccc(F)cc1F` + C[C@]12O[C@H](C[C@]1(O)CO)n1c3ccccc3c3c4c(c5c6ccccc6n2c5c31)CNC4=O [Lestaurtinib] (first compound 0.4 µM, partner dose 0.004 µM) was tested, and the “cleaved PARP positive nuclei fraction” value (WM115) was 148%, the “cleaved PARP positive nuclei fraction” value (WM1716) was 20.9% and the “cleaved PARP positive nuclei fraction” value (WM1745) was 93.5%. For the same compound, the “cleaved PARP positive nuclei fraction” value (WM3526) was 415%, the “cleaved PARP positive nuclei fraction” value (WM3619) was 104% and the “cleaved PARP positive nuclei fraction” value (WM451Lu) was 93.4%.

In the case of `N.N.[Cl][Pt][Cl]` [cisplatin] + Cc1cc(SCc2sc(-c3ccc(C(F)(F)F)c(F)c3)nc2C)ccc1OCC(=O)O [GW0742] (first compound 1.6 µM, partner dose 2 µM), the “cleaved PARP positive nuclei fraction” value (WM115) is reported as 193%, the “cleaved PARP positive nuclei fraction” value (WM1716) is reported as 230% and the “cleaved PARP positive nuclei fraction” value (WM1745) is reported as 81.4%. For the same compound, the “cleaved PARP positive nuclei fraction” value (WM3526) was 140%, the “cleaved PARP positive nuclei fraction” value (WM3619) was 109% and the “cleaved PARP positive nuclei fraction” value (WM451Lu) was 285%.

For `C[C@]12O[C@H](C[C@]1(O)CO)n1c3ccccc3c3c4c(c5c6ccccc6n2c5c31)CNC4=O` [Lestaurtinib] + COc1cc(Nc2ncc(F)c(Nc3ccc4c(n3)NC(=O)C(C)(C)O4)n2)cc(OC)c1OC [Tamatinib] (first compound 0.004 µM, partner dose 0.4 µM), the “cleaved PARP positive nuclei fraction” value (WM115) was 62.1%, the “cleaved PARP positive nuclei fraction” value (WM1716) was 146% and the “cleaved PARP positive nuclei fraction” value (WM1745) was 130%. For the same compound, the “cleaved PARP positive nuclei fraction” value (WM3526) was 63.1%, the “cleaved PARP positive nuclei fraction” value (WM3619) was 90.7% and the “cleaved PARP positive nuclei fraction” value (WM451Lu) was 58%.

With `O=C(O)c1ccc2c(c1)nc(Nc1cccc(Cl)c1)c1ccncc12` + C[As](C)SC[C@H](NC(=O)CC[C@H](N)C(=O)O)C(=O)NCC(=O)O [Darinaparsin] (first compound 0.4 µM, partner dose 0.4 µM) the “cleaved PARP positive nuclei fraction” value (WM115) was 41%, the “cleaved PARP positive nuclei fraction” value (WM1716) was 159% and the “cleaved PARP positive nuclei fraction” value (WM1745) was 116%. For the same compound, the “cleaved PARP positive nuclei fraction” value (WM3526) was 27.1%, the “cleaved PARP positive nuclei fraction” value (WM3619) was 80.4% and the “cleaved PARP positive nuclei fraction” value (WM451Lu) was 51%.

For `C[C@]1(c2nc3c(C(N)=O)cccc3[nH]2)CCCN1` [Veliparib] + O=C(Oc1ccc([N+](=O)[O-])cc1)N1CCC(C(O)(c2ccc3c(c2)OCO3)c2ccc3c(c2)OCO3)CC1 [JZL184] (first compound 1.4 µM, partner dose 1 µM), the “cleaved PARP positive nuclei fraction” value (WM115) was 395%, the “cleaved PARP positive nuclei fraction” value (WM1716) was 284% and the “cleaved PARP positive nuclei fraction” value (WM1745) was 117%. The “cleaved PARP positive nuclei fraction” value (WM3526) was 141%, the “cleaved PARP positive nuclei fraction” value (WM3619) was 124% and the “cleaved PARP positive nuclei fraction” value (WM451Lu) was 58.5%.

With `C[C@]12O[C@H](C[C@]1(O)CO)n1c3ccccc3c3c4c(c5c6ccccc6n2c5c31)CNC4=O` [Lestaurtinib] + Cc1cc(SCc2sc(-c3ccc(C(F)(F)F)c(F)c3)nc2C)ccc1OCC(=O)O [GW0742] (first compound 0.004 µM, partner dose 2 µM) the “cleaved PARP positive nuclei fraction” value (WM115) was 123%, the “cleaved PARP positive nuclei fraction” value (WM1716) was 147% and the “cleaved PARP positive nuclei fraction” value (WM1745) was 97.3%. For the same compound, the “cleaved PARP positive nuclei fraction” value (WM3526) was 244%, the “cleaved PARP positive nuclei fraction” value (WM3619) was 94.9% and the “cleaved PARP positive nuclei fraction” value (WM451Lu) was 94.7%.

With `C[C@]12O[C@H](C[C@]1(O)CO)n1c3ccccc3c3c4c(c5c6ccccc6n2c5c31)CNC4=O` [Lestaurtinib] + Cn1cncc1[C@@](N)(c1ccc(Cl)cc1)c1ccc2c(c1)c(-c1cccc(Cl)c1)cc(=O)n2C [tipifarnib] (first compound 0.004 µM, partner dose 0.01 µM) the “cleaved PARP positive nuclei fraction” value (WM115) was 93.4%, the “cleaved PARP positive nuclei fraction” value (WM1716) was 142% and the “cleaved PARP positive nuclei fraction” value (WM1745) was 95.8%. For the same compound, the “cleaved PARP positive nuclei fraction” value (WM3526) was 66.4%, the “cleaved PARP positive nuclei fraction” value (WM3619) was 107% and the “cleaved PARP positive nuclei fraction” value (WM451Lu) was 109%.

In the case of `COC(=O)c1sccc1S(=O)(=O)Nc1ccc(Nc2ccccc2)cc1OC` + O=C(Oc1ccc([N+](=O)[O-])cc1)N1CCC(C(O)(c2ccc3c(c2)OCO3)c2ccc3c(c2)OCO3)CC1 [JZL184] (first compound 1 µM, partner dose 1 µM), the “cleaved PARP positive nuclei fraction” value (WM115) is reported as 140%, the “cleaved PARP positive nuclei fraction” value (WM1716) is reported as 72.2% and the “cleaved PARP positive nuclei fraction” value (WM1745) is reported as 97.6%. The “cleaved PARP positive nuclei fraction” value (WM3526) was 79.1%, the “cleaved PARP positive nuclei fraction” value (WM3619) was 82.8% and the “cleaved PARP positive nuclei fraction” value (WM451Lu) was 273%.

In the case of `C[C@]1(O)C[C@@H](c2nc(-c3ccc4ccc(-c5ccccc5)nc4c3)c3c(N)nccn32)C1` + O=C(Oc1ccc([N+](=O)[O-])cc1)N1CCC(C(O)(c2ccc3c(c2)OCO3)c2ccc3c(c2)OCO3)CC1 [JZL184] (first compound 0.4 µM, partner dose 1 µM), the “cleaved PARP positive nuclei fraction” value (WM115) is reported as 119%, the “cleaved PARP positive nuclei fraction” value (WM1716) is reported as 43.4% and the “cleaved PARP positive nuclei fraction” value (WM1745) is reported as 112%. For the same compound, the “cleaved PARP positive nuclei fraction” value (WM3526) was 86.6%, the “cleaved PARP positive nuclei fraction” value (WM3619) was 97.8% and the “cleaved PARP positive nuclei fraction” value (WM451Lu) was 40.2%.
